According to patent US7922998B2, “Gastrin releasing peptide compounds” (Bracco Imaging S.p.A., priority 2003, dated 2011):

Biological target: T1, NMB-R (Rattus norvegicus, UniProt P24053)
T1 construct: C6, an NMB-R expressing rodent glioblastoma cell line; host or cells: C6 glioma cells, intact and plated
T1 sequence (P24053 1-390): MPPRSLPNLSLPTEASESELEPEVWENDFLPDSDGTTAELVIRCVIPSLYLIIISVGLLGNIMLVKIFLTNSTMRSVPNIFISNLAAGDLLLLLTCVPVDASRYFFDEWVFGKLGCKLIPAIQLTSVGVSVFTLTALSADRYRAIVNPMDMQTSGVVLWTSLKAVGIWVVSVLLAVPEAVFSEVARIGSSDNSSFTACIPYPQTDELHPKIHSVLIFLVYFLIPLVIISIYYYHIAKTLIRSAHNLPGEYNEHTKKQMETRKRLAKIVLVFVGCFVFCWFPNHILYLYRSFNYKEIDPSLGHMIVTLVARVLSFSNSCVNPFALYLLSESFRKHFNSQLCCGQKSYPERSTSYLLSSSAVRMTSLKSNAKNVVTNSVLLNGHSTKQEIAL
Assay: Competition with 125I-NMB for NMB-R in C6 cells (Example LX)
Format: binding, rodent
Conditions: Table 10; class cut off 10x the IC50 of [Tyr4]-BBN with 125I-NMB on C6 cells; yes or dash

CSCC[C@H](NC(=O)[C@H](CC(C)C)NC(=O)[C@H](Cc1c[nH]cn1)NC(=O)CNC(=O)[C@@H](NC(=O)[C@H](C)NC(=O)[C@H](Cc1c[nH]c2ccccc12)NC(=O)[C@H](CCC(N)=O)NC(=O)c1ccc(CNC(=O)CN2CCN(CC(=O)O)CCN(CC(=O)O)CCN(CC(=O)O)CC2)cc1)C(C)C)C(N)=O [Compound L71, 4-[[[[4,7,10-Tris(carboxymethyl)-1,4,7,10-tetraazacyclododec-1-yl]acetyl]amino]methyl]benzoyl-L-glutaminyl-L-tryptophyl-L-alanyl-L-valyl-glycyl-L-histidyl-L-leucyl-L-methioninamide]
GRP-R & NMB-R (binds both with similar affinity): yes
